PubChem BioAssay AID504804 | Drosophila RNAi Screening Center, 2011
In all, the deposit lists about 19,000 reagents; below is a random part of those that have a named target and a result. Over the whole deposit, 47 (0.25%) are marked active. 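Signals are raw, not normalised; exact z-scores behind calls not deposited; actives needed confirmation, so some wells reaching 2 SD are inactive.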 A plus sign joins genes that one reagent is predicted to hit.

- Screen: 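Knock-downs shielding fly cells from apoptosis caused by DNA damage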 (primary screen)
- Cell system: Drosophila Kc cells
- Reagents: long dsRNA against Drosophila genes, 0.5 µg dsRNA per well
- Duration: 96 h (48 h knock-down, then 48 h drug)
- Conditions: doxorubicin 5 µg/ml for 48 h, added 48 h after dsRNA
- Read-out: 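Luminescent ATP counts per replicate, not normalised, reflecting viable cells after 48 h dsRNA knock-down followed by 48 h of 5 µg/ml doxorubicin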
- Direction: raw ATP luminescence: higher = more viable cells, protection from doxorubicin
- Call rule: 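z-score of 2 or more over plate mean in both duplicates, retained only when retests and separate dsRNAs confirm the protection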

{"predicted target": "CG9547", "amplicon": "DRSC03260", "raw ATP luminescence, replicate 1": 1.37e5, "raw ATP luminescence, replicate 2": 87943, "Outcome": "inactive"}
{"predicted target": "FASN3", "amplicon": "DRSC20882", "raw ATP luminescence, replicate 1": 3.15e5, "raw ATP luminescence, replicate 2": 2.66e5, "Outcome": "inactive"}
{"predicted target": "sm", "amplicon": "DRSC05795", "raw ATP luminescence, replicate 1": 1.56e5, "raw ATP luminescence, replicate 2": 1.40e5, "Outcome": "inactive"}
{"predicted target": "sm", "amplicon": "DRSC07686", "raw ATP luminescence, replicate 1": 44357, "raw ATP luminescence, replicate 2": 59363, "Outcome": "inactive"}
{"predicted target": "Acsx4", "amplicon": "DRSC14311", "raw ATP luminescence, replicate 1": 71480, "raw ATP luminescence, replicate 2": 47570, "Outcome": "inactive"}
{"predicted target": "CG18179", "amplicon": "DRSC10303", "raw ATP luminescence, replicate 1": 1.04e5, "raw ATP luminescence, replicate 2": 79397, "Outcome": "inactive"}
{"predicted target": "slmo + CG34179", "amplicon": "DRSC03143", "raw ATP luminescence, replicate 1": 94370, "raw ATP luminescence, replicate 2": 47997, "Outcome": "inactive"}
{"predicted target": "Scgalpha", "amplicon": "DRSC03076", "raw ATP luminescence, replicate 1": 42110, "raw ATP luminescence, replicate 2": 56970, "Outcome": "inactive"}
{"predicted target": "IFT43", "amplicon": "DRSC02892", "raw ATP luminescence, replicate 1": 93277, "raw ATP luminescence, replicate 2": 59130, "Outcome": "inactive"}
{"predicted target": "CG7094", "amplicon": "DRSC03005", "raw ATP luminescence, replicate 1": 86073, "raw ATP luminescence, replicate 2": 83373, "Outcome": "inactive"}
{"predicted target": "GstD5", "amplicon": "DRSC16686", "raw ATP luminescence, replicate 1": 62293, "raw ATP luminescence, replicate 2": 67573, "Outcome": "inactive"}
{"predicted target": "CG15142", "amplicon": "DRSC02443", "raw ATP luminescence, replicate 1": 66277, "raw ATP luminescence, replicate 2": 68707, "Outcome": "inactive"}
{"predicted target": "Rpt2", "amplicon": "DRSC16799", "raw ATP luminescence, replicate 1": 35957, "raw ATP luminescence, replicate 2": 47797, "Outcome": "inactive"}
{"predicted target": "CG30110", "amplicon": "DRSC05686", "raw ATP luminescence, replicate 1": 1.78e5, "raw ATP luminescence, replicate 2": 1.26e5, "Outcome": "inactive"}
{"predicted target": "Eip75B", "amplicon": "DRSC11161", "raw ATP luminescence, replicate 1": 16100, "raw ATP luminescence, replicate 2": 12143, "Outcome": "inactive"}
{"predicted target": "Srr", "amplicon": "DRSC16382", "raw ATP luminescence, replicate 1": 49730, "raw ATP luminescence, replicate 2": 44873, "Outcome": "inactive"}
{"predicted target": "fig", "amplicon": "DRSC16270", "raw ATP luminescence, replicate 1": 61110, "raw ATP luminescence, replicate 2": 48490, "Outcome": "inactive"}
{"predicted target": "Sems", "amplicon": "DRSC11626", "raw ATP luminescence, replicate 1": 62950, "raw ATP luminescence, replicate 2": 61943, "Outcome": "inactive"}
{"predicted target": "Gyc76C + CG42637", "amplicon": "DRSC11180", "raw ATP luminescence, replicate 1": 22383, "raw ATP luminescence, replicate 2": 16560, "Outcome": "inactive"}
{"predicted target": "ArgRS", "amplicon": "DRSC20138", "raw ATP luminescence, replicate 1": 3.04e5, "raw ATP luminescence, replicate 2": 2.39e5, "Outcome": "inactive"}
{"predicted target": "Gbs-76A", "amplicon": "DRSC11081", "raw ATP luminescence, replicate 1": 26423, "raw ATP luminescence, replicate 2": 21373, "Outcome": "inactive"}
{"predicted target": "CG10948", "amplicon": "DRSC09806", "raw ATP luminescence, replicate 1": 80760, "raw ATP luminescence, replicate 2": 85683, "Outcome": "inactive"}
{"predicted target": "Hmgcr", "amplicon": "DRSC16704", "raw ATP luminescence, replicate 1": 42080, "raw ATP luminescence, replicate 2": 48630, "Outcome": "inactive"}
{"predicted target": "unc-119", "amplicon": "DRSC18846", "raw ATP luminescence, replicate 1": 37590, "raw ATP luminescence, replicate 2": 43150, "Outcome": "inactive"}
{"predicted target": "bcd", "amplicon": "DRSC12624", "raw ATP luminescence, replicate 1": 46137, "raw ATP luminescence, replicate 2": 30373, "Outcome": "inactive"}
{"predicted target": "CG17712", "amplicon": "DRSC00266", "raw ATP luminescence, replicate 1": 1.26e5, "raw ATP luminescence, replicate 2": 79770, "Outcome": "inactive"}
{"predicted target": "CG6441", "amplicon": "DRSC02957", "raw ATP luminescence, replicate 1": 24667, "raw ATP luminescence, replicate 2": 21617, "Outcome": "inactive"}
{"predicted target": "CG12521", "amplicon": "DRSC09893", "raw ATP luminescence, replicate 1": 95827, "raw ATP luminescence, replicate 2": 67623, "Outcome": "inactive"}

Targets above whose gene name begins with S or s:
{"predicted target": "sm", "amplicon": "DRSC05795", "raw ATP luminescence, replicate 1": 1.56e5, "raw ATP luminescence, replicate 2": 1.40e5, "Outcome": "inactive"}
{"predicted target": "sm", "amplicon": "DRSC07686", "raw ATP luminescence, replicate 1": 44357, "raw ATP luminescence, replicate 2": 59363, "Outcome": "inactive"}
{"predicted target": "slmo + CG34179", "amplicon": "DRSC03143", "raw ATP luminescence, replicate 1": 94370, "raw ATP luminescence, replicate 2": 47997, "Outcome": "inactive"}
{"predicted target": "Scgalpha", "amplicon": "DRSC03076", "raw ATP luminescence, replicate 1": 42110, "raw ATP luminescence, replicate 2": 56970, "Outcome": "inactive"}
{"predicted target": "Srr", "amplicon": "DRSC16382", "raw ATP luminescence, replicate 1": 49730, "raw ATP luminescence, replicate 2": 44873, "Outcome": "inactive"}
{"predicted target": "Sems", "amplicon": "DRSC11626", "raw ATP luminescence, replicate 1": 62950, "raw ATP luminescence, replicate 2": 61943, "Outcome": "inactive"}
